Assay results reported in the M2OR odorant receptor database.
The entries are a selection whose mix differs from that of the whole data set. The calls were merged from several studies; some rest on single wells.

Chains of the proteins cited; added tags and fusions are not shown. A line that says so, or that is headed by a name, gives the form on record, which may keep a tag or linker.
UniProt Q8VF06, as listed by the source: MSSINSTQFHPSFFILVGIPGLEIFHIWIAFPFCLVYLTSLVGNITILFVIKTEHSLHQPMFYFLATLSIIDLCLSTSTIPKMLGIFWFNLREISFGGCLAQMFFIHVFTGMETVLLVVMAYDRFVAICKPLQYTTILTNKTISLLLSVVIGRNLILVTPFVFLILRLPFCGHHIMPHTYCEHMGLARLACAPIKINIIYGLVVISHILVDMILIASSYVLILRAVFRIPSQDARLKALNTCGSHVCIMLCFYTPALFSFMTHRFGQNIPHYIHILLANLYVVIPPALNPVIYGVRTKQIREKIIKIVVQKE
UniProt Q8VG26, as listed by the source: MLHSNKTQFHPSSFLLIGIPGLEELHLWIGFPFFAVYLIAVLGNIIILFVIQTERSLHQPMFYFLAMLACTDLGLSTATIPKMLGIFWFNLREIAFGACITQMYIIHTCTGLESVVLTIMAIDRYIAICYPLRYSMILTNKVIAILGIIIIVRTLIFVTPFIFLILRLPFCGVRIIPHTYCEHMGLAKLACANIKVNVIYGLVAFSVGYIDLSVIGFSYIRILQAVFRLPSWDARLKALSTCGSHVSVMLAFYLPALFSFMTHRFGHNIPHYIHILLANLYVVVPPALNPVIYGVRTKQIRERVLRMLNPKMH

Key:
Details in all cases: stereoisomer not certain
UniProt Q8VF06 = target: UniProt Q8VF06
How it was run: (§1)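 Each entry records the cell line, G-protein, co-transfected protein and tags used. Methods varied with the source, often transient luciferase assays in mammalian cell lines. A receptor–molecule pair is called responsive (active) if the original authors judged its signal statistically different from baseline and non-responsive (inactive) otherwise.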

UniProt Q8VF43 = target: T1, UniProt Q8VF43
T1 sequence (whole entry): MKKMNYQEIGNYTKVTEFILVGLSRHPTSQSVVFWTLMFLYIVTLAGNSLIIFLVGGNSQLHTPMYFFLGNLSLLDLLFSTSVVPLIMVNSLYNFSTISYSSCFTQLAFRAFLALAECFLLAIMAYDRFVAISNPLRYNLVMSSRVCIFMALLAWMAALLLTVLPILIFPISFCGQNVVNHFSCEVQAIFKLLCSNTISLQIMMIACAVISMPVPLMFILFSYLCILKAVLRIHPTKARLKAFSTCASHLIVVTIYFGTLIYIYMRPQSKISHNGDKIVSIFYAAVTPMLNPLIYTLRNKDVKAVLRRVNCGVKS
How it was run: as §1

UniProt Q8VF52 = target: T2, UniProt Q8VF52
T2 sequence (whole entry): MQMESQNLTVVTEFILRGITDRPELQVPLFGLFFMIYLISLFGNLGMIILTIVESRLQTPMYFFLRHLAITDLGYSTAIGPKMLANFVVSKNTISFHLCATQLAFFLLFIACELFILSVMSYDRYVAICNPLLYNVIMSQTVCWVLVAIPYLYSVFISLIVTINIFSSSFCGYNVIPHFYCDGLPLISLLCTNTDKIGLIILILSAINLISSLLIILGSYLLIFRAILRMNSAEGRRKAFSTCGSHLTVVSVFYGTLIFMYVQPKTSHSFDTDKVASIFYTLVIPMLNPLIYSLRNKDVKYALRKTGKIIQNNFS
How it was run: as §1

UniProt Q8VFM8 = target: T3, UniProt Q8VFM8
T3 sequence (whole entry): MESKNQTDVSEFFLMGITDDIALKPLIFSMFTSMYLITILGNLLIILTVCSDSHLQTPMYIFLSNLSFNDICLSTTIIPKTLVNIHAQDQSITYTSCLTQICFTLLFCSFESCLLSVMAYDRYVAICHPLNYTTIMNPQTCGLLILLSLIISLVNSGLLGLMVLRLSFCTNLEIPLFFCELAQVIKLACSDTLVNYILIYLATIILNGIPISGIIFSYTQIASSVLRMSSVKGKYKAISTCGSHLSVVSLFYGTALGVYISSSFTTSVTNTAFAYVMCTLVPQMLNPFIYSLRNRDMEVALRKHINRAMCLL
How it was run: as §1

UniProt Q8VFP5 = target: T4, UniProt Q8VFP5
T4 sequence (whole entry): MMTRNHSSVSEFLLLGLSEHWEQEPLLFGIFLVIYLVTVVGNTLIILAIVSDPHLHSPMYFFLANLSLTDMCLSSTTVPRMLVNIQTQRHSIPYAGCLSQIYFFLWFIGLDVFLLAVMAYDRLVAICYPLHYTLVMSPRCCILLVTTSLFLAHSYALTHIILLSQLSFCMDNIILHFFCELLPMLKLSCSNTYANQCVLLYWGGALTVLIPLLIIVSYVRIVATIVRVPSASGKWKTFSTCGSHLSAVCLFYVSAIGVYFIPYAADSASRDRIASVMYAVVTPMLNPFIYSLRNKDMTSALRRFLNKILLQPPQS
How it was run: as §1

UniProt Q8VG01 = target: T5, UniProt Q8VG01
T5 sequence (whole entry): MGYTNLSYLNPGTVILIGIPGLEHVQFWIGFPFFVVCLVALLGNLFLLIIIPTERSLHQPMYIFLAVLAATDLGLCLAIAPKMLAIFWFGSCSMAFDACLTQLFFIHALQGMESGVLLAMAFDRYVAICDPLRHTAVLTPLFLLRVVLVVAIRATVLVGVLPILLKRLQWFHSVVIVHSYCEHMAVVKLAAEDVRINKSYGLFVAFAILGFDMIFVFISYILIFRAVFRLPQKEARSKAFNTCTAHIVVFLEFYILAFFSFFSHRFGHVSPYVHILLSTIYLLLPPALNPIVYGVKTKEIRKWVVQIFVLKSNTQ
How it was run: as §1

UniProt Q8VG26 = target: UniProt Q8VG26
How it was run: as §1

UniProt Q8VG27 = target: T6, UniProt Q8VG27
T6 sequence (whole entry): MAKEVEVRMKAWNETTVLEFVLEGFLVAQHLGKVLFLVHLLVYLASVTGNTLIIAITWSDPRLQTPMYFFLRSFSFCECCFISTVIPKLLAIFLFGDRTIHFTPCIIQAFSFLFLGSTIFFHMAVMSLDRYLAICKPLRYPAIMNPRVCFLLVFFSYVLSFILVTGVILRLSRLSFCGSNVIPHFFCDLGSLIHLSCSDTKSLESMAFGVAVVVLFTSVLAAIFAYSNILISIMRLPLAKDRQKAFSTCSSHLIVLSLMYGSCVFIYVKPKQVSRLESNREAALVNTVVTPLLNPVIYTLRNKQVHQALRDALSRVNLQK
How it was run: as §1

UniProt Q8VEU7 = target: T7, UniProt Q8VEU7
T7 sequence (whole entry): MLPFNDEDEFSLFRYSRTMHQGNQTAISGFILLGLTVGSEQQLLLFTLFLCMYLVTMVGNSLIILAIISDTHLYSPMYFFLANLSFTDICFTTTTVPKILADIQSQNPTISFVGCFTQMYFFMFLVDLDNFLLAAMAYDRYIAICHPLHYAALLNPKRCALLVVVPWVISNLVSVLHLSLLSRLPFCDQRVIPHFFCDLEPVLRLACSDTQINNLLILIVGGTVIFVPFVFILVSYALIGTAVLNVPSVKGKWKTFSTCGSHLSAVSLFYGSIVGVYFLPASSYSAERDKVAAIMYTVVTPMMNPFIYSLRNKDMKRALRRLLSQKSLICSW
How it was run: as §1

UniProt Q8VF05 = target: T8, UniProt Q8VF05
T8 sequence (whole entry): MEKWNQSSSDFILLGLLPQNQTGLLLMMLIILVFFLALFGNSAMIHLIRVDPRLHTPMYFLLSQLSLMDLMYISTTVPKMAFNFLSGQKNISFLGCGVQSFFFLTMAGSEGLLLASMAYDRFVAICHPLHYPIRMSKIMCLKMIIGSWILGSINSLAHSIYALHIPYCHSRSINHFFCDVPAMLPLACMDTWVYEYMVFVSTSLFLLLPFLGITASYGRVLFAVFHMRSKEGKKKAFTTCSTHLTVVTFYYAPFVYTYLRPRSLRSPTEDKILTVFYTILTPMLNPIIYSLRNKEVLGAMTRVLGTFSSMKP
How it was run: as §1

UniProt Q8VF24 = target: T9, UniProt Q8VF24
T9 sequence (whole entry): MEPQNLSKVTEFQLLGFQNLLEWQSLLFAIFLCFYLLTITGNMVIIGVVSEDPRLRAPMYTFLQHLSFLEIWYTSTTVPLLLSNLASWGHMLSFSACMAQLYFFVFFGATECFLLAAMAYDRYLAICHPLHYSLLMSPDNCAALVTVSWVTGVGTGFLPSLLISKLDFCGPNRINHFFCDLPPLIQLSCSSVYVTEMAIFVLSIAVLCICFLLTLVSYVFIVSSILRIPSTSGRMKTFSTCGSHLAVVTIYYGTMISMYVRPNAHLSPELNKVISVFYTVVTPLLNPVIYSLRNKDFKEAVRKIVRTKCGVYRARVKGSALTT
How it was run: as §1

UniProt Q8VF44 = target: T10, UniProt Q8VF44
T10 sequence (whole entry): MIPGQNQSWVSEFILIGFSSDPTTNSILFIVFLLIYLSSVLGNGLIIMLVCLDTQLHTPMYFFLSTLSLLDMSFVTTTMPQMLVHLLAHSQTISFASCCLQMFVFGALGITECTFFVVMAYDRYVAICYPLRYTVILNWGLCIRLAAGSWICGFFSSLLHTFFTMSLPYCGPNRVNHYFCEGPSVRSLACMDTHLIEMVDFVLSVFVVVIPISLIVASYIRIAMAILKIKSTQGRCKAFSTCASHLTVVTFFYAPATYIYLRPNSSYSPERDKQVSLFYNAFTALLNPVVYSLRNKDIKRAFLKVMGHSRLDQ
How it was run: as §1

UniProt Q8VFG6 = target: T11, UniProt Q8VFG6
T11 sequence (whole entry): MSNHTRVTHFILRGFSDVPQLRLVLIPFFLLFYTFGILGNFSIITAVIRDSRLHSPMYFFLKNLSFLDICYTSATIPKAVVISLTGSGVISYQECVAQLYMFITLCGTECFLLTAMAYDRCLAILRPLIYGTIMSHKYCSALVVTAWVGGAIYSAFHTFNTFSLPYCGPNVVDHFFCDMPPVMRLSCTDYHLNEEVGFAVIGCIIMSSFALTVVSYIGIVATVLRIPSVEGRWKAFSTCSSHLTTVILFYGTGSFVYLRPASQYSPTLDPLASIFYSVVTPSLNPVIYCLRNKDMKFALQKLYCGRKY
How it was run: as §1

UniProt Q8VFZ6 = target: T12, UniProt Q8VFZ6
T12 sequence (whole entry): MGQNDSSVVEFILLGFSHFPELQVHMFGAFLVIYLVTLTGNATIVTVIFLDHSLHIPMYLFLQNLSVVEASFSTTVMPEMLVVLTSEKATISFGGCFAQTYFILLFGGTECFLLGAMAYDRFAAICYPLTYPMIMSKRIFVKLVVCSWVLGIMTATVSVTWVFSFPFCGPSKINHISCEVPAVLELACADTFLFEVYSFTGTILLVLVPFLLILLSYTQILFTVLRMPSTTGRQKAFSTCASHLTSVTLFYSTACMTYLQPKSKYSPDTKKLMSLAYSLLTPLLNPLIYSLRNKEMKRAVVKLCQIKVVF
How it was run: as §1

UniProt Q8VG22 = target: T13, UniProt Q8VG22
T13 sequence (whole entry): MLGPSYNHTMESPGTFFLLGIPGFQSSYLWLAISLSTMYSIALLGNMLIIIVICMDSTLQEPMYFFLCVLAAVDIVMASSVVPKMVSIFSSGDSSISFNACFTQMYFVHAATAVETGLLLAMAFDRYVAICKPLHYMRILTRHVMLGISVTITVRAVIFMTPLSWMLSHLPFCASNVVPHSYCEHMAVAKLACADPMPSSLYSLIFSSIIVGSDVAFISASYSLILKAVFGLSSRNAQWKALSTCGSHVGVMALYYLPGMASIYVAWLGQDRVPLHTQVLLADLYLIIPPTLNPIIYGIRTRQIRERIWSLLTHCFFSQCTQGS
How it was run: as §1

Row | SMILES | odorant receptor agonist call (UniProt Q8VF06) | odorant receptor agonist call (UniProt Q8VF43) | odorant receptor agonist call (UniProt Q8VF52) | odorant receptor agonist call (UniProt Q8VFM8) | odorant receptor agonist call (UniProt Q8VFP5) | odorant receptor agonist call (UniProt Q8VG01) | odorant receptor agonist call (UniProt Q8VG26) | odorant receptor agonist call (UniProt Q8VG27) | odorant receptor agonist call (UniProt Q8VEU7) | odorant receptor agonist call (UniProt Q8VF05) | odorant receptor agonist call (UniProt Q8VF24) | odorant receptor agonist call (UniProt Q8VF44) | odorant receptor agonist call (UniProt Q8VFG6) | odorant receptor agonist call (UniProt Q8VFZ6) | odorant receptor agonist call (UniProt Q8VG22)
1 | CC(C)CC(=O)O | inactive | inactive | inactive | inactive | inactive | inactive | inactive | inactive | – | – | – | – | – | – | –
2 | CC12CCC(CC1)C(C)(C)O2 | – | inactive | inactive | inactive | inactive | inactive | – | inactive | – | – | – | – | – | – | –
3 | C=CC(C)(O)CCC=C(C)C (centres undefined) | – | inactive | inactive | inactive | inactive | inactive | – | inactive | – | – | – | – | – | – | –
4 | C=CCc1ccc(OC)c(OC)c1 | – | inactive | active | inactive | inactive | inactive | – | inactive | – | – | – | – | – | – | –
5 | CCCCCOC(C)=O | inactive | inactive | inactive | inactive | inactive | inactive | inactive | inactive | – | – | – | – | – | – | –
6 | CC12CCC(C1)C(C)(C)C2=O (centres undefined) | – | – | active | – | – | inactive | – | – | inactive | active | active | inactive | inactive | inactive | inactive
7 | CCCCCCCCC=O | – | inactive | inactive | inactive | inactive | inactive | inactive | inactive | inactive | inactive | inactive | inactive | inactive | inactive | inactive
8 | COc1ccccc1O | – | inactive | inactive | inactive | inactive | inactive | – | inactive | – | – | – | – | – | – | –
9 | CC(C)=CCCC(C)=CC=O | – | inactive | inactive | inactive | inactive | inactive | – | inactive | – | – | – | – | – | – | –
